Laboratory results: PubChem BioAssay AID1508597 (Cure First, 2020)
Shown is a random part of the about 2,100 reagents, in one setting of the screen. 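Calls flag viability under 80% in either arm, not effects specific to rucaparib; the reference for percent is not stated.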 The record does not give: the 100% reference.

- Screen: 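Knock-downs altering ovarian cancer cell survival with or without PARP inhibitor rucaparib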 (primary screen)
- Cell system: human ovarian carcinoma lines grown from tumours: OCI-P5x (papillary serous) and OCI-C5x (clear cell)
- Reagents: siRNA pool against human genes, 1.25 pmol siRNA per well
- Timing: 72 h or 96 h, depending on the cell culture
- Treatment: rucaparib 20 µM (about IC30) or vehicle, present until read-out
- Rucaparib or vehicle: Vehicle
- Cell line: OCI-P5x (serous)
- Measured: 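Luminescent ATP-based viability assay read 72 or 96 h after transfection, depending on culture, given as normalised percent viability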
- Scale: viability, normalised: higher = more viable cells remaining
- Hit rule: 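Active when normalised viability falls below 80 percent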
- Meaning of the calls: active = viability under 80%; inactive = viability 80% or more

PRKCD, technical replicate 1
- viability, normalised (%): 64
- outcome: active

PRKCD, technical replicate 2
- viability, normalised (%): 54.9
- outcome: active

PRKCD, technical replicate 3
- viability, normalised (%): 67.1
- outcome: active

H2AC4, technical replicate 1
- viability, normalised (%): 81.9
- outcome: inactive

H2AC4, technical replicate 2
- viability, normalised (%): 87.1
- outcome: inactive

H2AC4, technical replicate 3
- viability, normalised (%): 87.5
- outcome: inactive

SP100, technical replicate 1
- viability, normalised (%): 57.9
- outcome: active

SP100, technical replicate 2
- viability, normalised (%): 60.5
- outcome: active

SP100, technical replicate 3
- viability, normalised (%): 44.8
- outcome: active

BMPR2, technical replicate 1
- viability, normalised (%): 77.3
- outcome: active

BMPR2, technical replicate 2
- viability, normalised (%): 67.2
- outcome: active

BMPR2, technical replicate 3
- viability, normalised (%): 69.9
- outcome: active

MCL1, technical replicate 1
- viability, normalised (%): 48.3
- outcome: active

MCL1, technical replicate 2
- viability, normalised (%): 42
- outcome: active

MCL1, technical replicate 3
- viability, normalised (%): 43.7
- outcome: active

PIK3CD, technical replicate 1
- viability, normalised (%): 82.8
- outcome: inactive

PIK3CD, technical replicate 2
- viability, normalised (%): 71.4
- outcome: active

PIK3CD, technical replicate 3
- viability, normalised (%): 71.2
- outcome: active

RRM2B, technical replicate 1
- viability, normalised (%): 70
- outcome: active

RRM2B, technical replicate 2
- viability, normalised (%): 69.8
- outcome: active

RRM2B, technical replicate 3
- viability, normalised (%): 67.5
- outcome: active

TGM3, technical replicate 1
- viability, normalised (%): 91.5
- outcome: inactive

TGM3, technical replicate 2
- viability, normalised (%): 94.4
- outcome: inactive

TGM3, technical replicate 3
- viability, normalised (%): 88.2
- outcome: inactive

RIOX1, technical replicate 1
- viability, normalised (%): 69.3
- outcome: active

RIOX1, technical replicate 2
- viability, normalised (%): 62.2
- outcome: active

RIOX1, technical replicate 3
- viability, normalised (%): 81
- outcome: inactive

GK, technical replicate 1
- viability, normalised (%): 123
- outcome: inactive

GK, technical replicate 2
- viability, normalised (%): 105
- outcome: inactive

GK, technical replicate 3
- viability, normalised (%): 103
- outcome: inactive

SUPT5H, technical replicate 1
- viability, normalised (%): 38.1
- outcome: active

SUPT5H, technical replicate 2
- viability, normalised (%): 48.4
- outcome: active

SUPT5H, technical replicate 3
- viability, normalised (%): 41.7
- outcome: active

SNAPC4, technical replicate 1
- viability, normalised (%): 55.9
- outcome: active

SNAPC4, technical replicate 2
- viability, normalised (%): 47.4
- outcome: active

SNAPC4, technical replicate 3
- viability, normalised (%): 56.1
- outcome: active

TJP3, technical replicate 1
- viability, normalised (%): 68.2
- outcome: active

TJP3, technical replicate 2
- viability, normalised (%): 62.3
- outcome: active

TJP3, technical replicate 3
- viability, normalised (%): 86
- outcome: inactive

PCDHB16, technical replicate 1
- viability, normalised (%): 59.8
- outcome: active

PCDHB16, technical replicate 2
- viability, normalised (%): 41.8
- outcome: active

PCDHB16, technical replicate 3
- viability, normalised (%): 95.4
- outcome: inactive

6 entries from above, set out differently.
PIK3CD, technical replicate 2 — viability, normalised (%) = 71.4; outcome = active
PIK3CD, technical replicate 3 — viability, normalised (%) = 71.2; outcome = active
RRM2B, technical replicate 1 — viability, normalised (%) = 70; outcome = active
RRM2B, technical replicate 2 — viability, normalised (%) = 69.8; outcome = active
RRM2B, technical replicate 3 — viability, normalised (%) = 67.5; outcome = active
TGM3, technical replicate 1 — viability, normalised (%) = 91.5; outcome = inactive
